Assay results reported in article doi:10.1101/2020.07.20.211441.
No constants are given. Whether binding was seen depends on the method and setting. Binding seen in cells or lysates may run through a third protein. A yes stands for co-enrichment or nearness to the bait. Other partners may have been found. Where a sequence is shown, tags or fusion partners need not be part of it.

T1: XPA-binding protein (XAB)-2, biotin-tagged knock-in (mouse) (UniProt Q9DCD2)
T1 sequence (chain, biotin on the Avitag (by the BirA ligase in vivo)): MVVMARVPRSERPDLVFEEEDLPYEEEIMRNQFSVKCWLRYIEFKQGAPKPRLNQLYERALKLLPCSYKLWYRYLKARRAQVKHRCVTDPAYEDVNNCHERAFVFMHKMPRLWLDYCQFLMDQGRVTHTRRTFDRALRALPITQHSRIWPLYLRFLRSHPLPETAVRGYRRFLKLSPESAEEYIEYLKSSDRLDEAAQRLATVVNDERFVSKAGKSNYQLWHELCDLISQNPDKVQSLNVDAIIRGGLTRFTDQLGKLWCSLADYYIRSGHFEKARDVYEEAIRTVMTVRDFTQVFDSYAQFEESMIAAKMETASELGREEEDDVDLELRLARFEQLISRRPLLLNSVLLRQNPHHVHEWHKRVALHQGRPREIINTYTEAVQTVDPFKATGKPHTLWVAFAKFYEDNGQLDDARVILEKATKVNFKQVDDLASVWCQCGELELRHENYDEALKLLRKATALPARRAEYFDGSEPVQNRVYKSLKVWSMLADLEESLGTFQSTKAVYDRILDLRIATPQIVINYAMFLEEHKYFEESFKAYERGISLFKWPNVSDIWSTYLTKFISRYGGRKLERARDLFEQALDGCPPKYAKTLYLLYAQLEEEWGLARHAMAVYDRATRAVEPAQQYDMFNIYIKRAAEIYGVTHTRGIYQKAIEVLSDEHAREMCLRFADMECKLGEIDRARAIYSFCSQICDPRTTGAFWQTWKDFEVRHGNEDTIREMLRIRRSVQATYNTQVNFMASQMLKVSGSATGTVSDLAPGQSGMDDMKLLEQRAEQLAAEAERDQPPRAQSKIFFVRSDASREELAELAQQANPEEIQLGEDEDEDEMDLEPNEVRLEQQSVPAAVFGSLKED


Target: T1, XPA-binding protein (XAB)-2, biotin-tagged knock-in (mouse)
Experiment: affinity purification with mass spectrometry

| Binder | binding |
| --- | --- |
| STAG2 (protein, UniProt O35638 1-1231) MIAAPEIPTDFNLLQESETHFSSDTDFEDIEGKNQKQGKGKTCKKGKKGPAEKGKSGNGGGKPPSGSNRMNGHHQQNGVENMMLFEVVKMGKSAMQSVVDDWIESYKHDRDIALLDLINFFIQCSGCKGVVTAEMFRHMQNSEIIRKMTEEFDEDSGDYPLTMAGPQWKKFKSSFCEFIGVLVRQCQYSIIYDEYMMDTVISLLTGLSDSQVRAFRHTSTLAAMKLMTALVNVALNLSINMDNTQRQYEAERNKMIGKRANERLELLLQKRKELQENQDEIENMMNAIFKGVFVHRYRDAIAEIRAICIEEIGIWMKMYSDAFLNDSYLKYVGWTMHDKQGEVRLKCLTALQGLYYNKELNSKLELFTSRFKDRIVSMTLDKEYDVAVQAIKLLTLVLQSSEEVLTAEDCENVYHLVYSAHRPVAVAAGEFLYKKLFSRRDPEEDGLMKRRGRQGPNANLVKTLVFFFLESELHEHAAYLVDSMWDCATELLKDWECMNSLLLEEPLSGEEALTDRQESALIEIMLCTIRQAAECHPPVGRGTGKRVLTAKEKKTQLDDRTRITELFAVALPQLLAKYSVDAEKVTNLLQLPQYFDLEIYTTGRLEKHLDALLRQIRNIVEKHTDTDVLEACSKTYHALCNEEFTIFNRVDISRSQLIDELADKFNRLLEDFLQEGEEPDEDDAYQVLSTLKRITAFHNAHDLSKWDLFACNYKLLKTGIENGDMPEQIVIHALQCAHYVILWQLAKITESTSTKEDLLRLKKQMRVFCQICQHYLTNVNTTVKEQAFTILCDILMIFSHQIMSGGRDMLEPLVYTPDSSLQSELLSFILDHVFIEQDDDSNSADGQQEDEASKIEALHKRRNLLAAFCKLIVYTVVEMNTAADIFKQYMKYYNDYGDIIKETMSKTRQIDKIQCAKTLILSLQQLFNEMIQENGYNFDRSSSTFSGIKELARRFALTFGLDQLKTREAIAMLHKDGIEFAFKEPNPQGESHPPLNLAFLDILSEFSSKLLRQDKRTVYVYLEKFMTFQMSLRREDVWLPLMSYRNSLLAGGDDDTMSVISGMSSRGSTVRSKKSKPSTGKRKVVEGMQLALPEESSSSDSMWLSREQTLHTPVMMQTPQLTSTIMREPKRLRPEDSFMSVYPMQAEHHQTPLDYNRRGTSLMEDDEEPIVEDVMMSSEGRIEDLNEGMDFDTMDIDLPPSKNRRERTELKPDFFDPASIMDESVLGVSMF | binds |
| GNL3 (protein, UniProt Q8CI11 1-538) MKRPKLKKASKRMTCHKRYKIQKKVREHHRKLRKEAKKRGHKKPRKDPGVPNSAPFKEALLREAELRKQQLEELKQQQKLDRQKEQERKRKLEVSPGDEQSNVETREESDEPKRKKAKAGKQNPKKLHCQELKKVIEASDIVLEVLDARDPLGCRCPQIEEAVIQSGSKKLILVLNKSDLVPKENLENWLNYLNKELPTVVFKASTNLKNRKTFKIKKKKVVPFQSKICCGKEALWKLLGDFQQSCGKDIQVGVIGFPNVGKSSVINSLKQEWICNVGISMGLTRSMQIVPLDKQITIIDSPCLIISPCNSPTALALRSPASIEELRPLEAASAILSQADNEQVVLKYTVPEYKDSLHFFTKLAQRRGLHQKGGSPNVESAAKLVWSEWTGASLGYYCHPPASWNHSLHFNENIAAVMKKGFNLEELEKNNAHSIQVLKGPHLTNRILFRSSGLTNGILDEKDIVEESPRQTEDKQDADDQENGSGERNAEISDVAPVEETRELSPEQSTAGKPSDGSSALDRASQEDETYDFTTDYI | binds |
| STAG1 (protein, UniProt Q9D3E6 1-1258) MITSELPVLQDSTNETTAHSDAGSELEETEVKGKRKRGRPGRPPSTNKKPRKSPGEKSRIEAGIRGAGRGRANGHPQQNGDGDPVTLFEVVKLGKSAMQSVVDDWIELYKQDRDIALLDLINFFIQCSGCRGTVRIEMFRNMQNAEIIRKMTEEFDEDSGDYPLTMPGPQWKKFRSNFCEFIGVLIRQCQYSIIYDEYMMDTVISLLTGLSDSQVRAFRHTSTLAAMKLMTALVNVALNLSIHQDNTQRQYEAERNKMIGKRANERLELLLQKRKELQENQDEIENMMNSIFKGIFVHRYRDAIAEIRAICIEEIGVWMKMYSDAFLNDSYLKYVGWTLHDRQGEVRLKCLKALQSLYTNRELFPKLELFTNRFKDRIVSMTLDKEYDVAVEAIRLVTLILHGSEEALSNEDCENVYHLVYSAHRPVAVAAGEFLHKKLFSRHDPQAEEALAKRRGRNSPNGNLIRMLVLFFLESELHEHAAYLVDSLWESSQELLKDWECMTELLLEEPVQGEEAMSDRQESALIELMVCTIRQAAEAHPPVGRGTGKRVLTAKERKTQIDDRNKLTEHFIITLPMLLSKYSADAEKVANLLQIPQYFDLEIYSTGRMEKHLDALLKQIKFVVEKHVESDVLEACSKTYSILCSEEYTIQNRVDIARSQLIDEFVDRFNHSVEDLLQEGEEADDDDIYNVLSTLKRLTSFHNAHDLTKWDLFGNCYRLLKTGIEHGAMPEQIVVQALQCSHYSILWQLVKITDGSPSKEDLLVLRKTVKSFLAVCQQCLSNVNTPVKEQAFMLLCDLLMIFSHQLMTGGREGLQPLVFNPDTGLQSELLSFVMDHVFIDQDEENQSMEGDEEDEANKIEALHKRRNLLAAFSKLIIYDIVDMHAAADIFKHYMKYYNDYGDIIKETLSKTRQIDKIQCAKTLILSLQQLFNELVQEQGPNLDRTSAHVSGIKELARRFALTFGLDQIKTREAVATLHKDGIEFAFKYQNQKGQEYPPPNLAFLEVLSEFSSKLLRQDKKTVHSYLEKFLTEQMMERREDVWLPLISYRNSLVTGGEDDRMSVNSGSSSSKTSSVRSKKGRPPLHRKRVEDESLDNTWLNRTDTMIQTPGPLPTPQLTSTVLRENSRPMGEQIQEPESEHGSEPDFLHNPQMQISWLGQPKLEDLNRKDRTGMNYMKVRAGVRHAVRGLMEEDAEPIFEDVMMSSRSQLEDMNEEFEDTMVIDLPPSRNRRERAELRPDFFDSAAIIEDDSGFGMPMF | binds |
| UTP15 (protein, UniProt Q8C7V3 1-528) MAGYKPVAIQTYPVLGEKITQDTLYWNNYKTPVQIKEFGAVSKVDFSPQLPYNYAVTASSRIHIYGRYSQEPVKTFSRFKDTAYCATFRQDGQLLVAGSEDGVVQLFDINGRAPLRQFEGHTKAVHTVDFTADNYHVVSGADDYTVKLWDIPNSKEILTFKEHSDYVRCGCASKLNPDLFVTGSYDHTVKIFDARTNKNVLCVEHGQPVESVLLFPSGGLLVSAGGRYVKVWDMLKGGQLLVSLKNHHKTVTCLCLSSSGQRLLSGSLDRKVKVYSTTSYKVVHSFDYAASILSLALSHQDETIVVGMTNGILSVKHRKSEAKKTSLPRRRRPAYRTFIKGKNYLKQRDDIMVSRPAKKHLEGYDKDLKSFRVSQALDRVLEPKCVIRTPEVTVSIIKELTRRGVLANALAGRDEKEVTRVLNFLIRNLSQPRFAPVLINAAEIIIDIYLPVIGQSSVVDKKFIVLQELVEKEIDYQRELLETLGMMDMLFATMTRNDSDPVPEHVPAELPEEKTESPTQPSDTDKNS | binds |

Now from value to binder:

| binding | Binder |
| --- | --- |
| binds | NOP58 (protein, UniProt Q6DFW4 1-536) MLVLFETSVGYAIFKVLNEKKLQEVDSLWKEFETPEKANKIVKLKHFEKFQDTAEALAAFTALMEGKINKQLKKVLKKIVKEAHEPLAVADAKLGGVIKEKLNLSCIHSPVVNELMRGIRSQMDGLIPGVEPREMAAMCLGLAHSLSRYRLKFSADKVDTMIVQAISLLDDLDKELNNYIMRCREWYGWHFPELGKIISDNLTYCKCLQKVGDRKNYASASLSEFLSEEVEAEVKAAAEISMGTEVSEEDICNILHLCTQVIEISEYRTQLYEYLQNRMMAIAPNVTVMVGELVGARLIAHAGSLLNLAKHAASTVQILGAEKALFRALKSRRDTPKYGLIYHASLVGQSSPKHKGKISRMLAAKTVLAIRYDAFGEDSSSAMGIENRAKLEARLRILEDRGIRKISGTGKALAKAEKYEHKSEVKTYDPSGDSTLPTCSKKRKIEEVDKEDEITEKKAKKAKIKIKAEVEEEMEEEEAEEEQVVEEEPTVKKKKKKDKKKHIKEEPLSEEEPCTSTAVPSPEKKKKKKKKKDAED |
| binds | WDR43 (protein, UniProt Q6ZQL4 1-677) MAAGGGGSYDPLAPAGVPCAFSPDSQAYFALASSDGQLRVWETANNRLHQEYVPSAHLSGTCTCLAWAPARLQAKESHQRKKRKSEVTGTKDQADLLALGTAVGSILLYSTVRGELHSKLTSGGHENRVNCIQWHQDNDCLYSCSDDKYIVEWSTQTCKVKCKWKGDNSSVSSLCISPDGKMLLSAGRTIKLWVLETKEVYRHFTGHATPVSSLRFTTIRPNESQPSDGITGLYFLSGAVHDRLLNVWQVRSENKEKSAVMSFTVTDEPVYVDLTLSENKEEPVKLAVVCRDGQVHLFEHILNGHCKKPLTSNCTIQIATPGKGKKVTPKPIPILAASFCLDKMSLLLVYGNWFQPTIERVALNSKDTHICLERDISNCWAPTVETAITKVKTPVMNSEAKVLVPGIPGHHAPIKLPPAQPKEAENKRKLGSTEATIEERLGAMDLDRKGRKDDLQTNSFAVLLTQGLESNDFEILNKVLQTKNVNLIKRTVLRIPLRVVIPLLQELTKRLQGHPNSAALMIQWLKCVLTIHASYLSTLPDLVEQLGTLYQLMESRVKTFQKLSNLHGKLILLVTQVTASEKSKKMTSPGQKAKLVYEEESSEEESDDEVPEKDSDDNWDEDEDKDSEKDEGVDEDNEEEDEDMEDKEENEEDREVSSEKELNGDSDLDPENESEEE |
